The values that follow come from paper PMC5844890 (Scientific Reports, 2018).

Holding throughout (type): cell-based
One assay relates to MDA-MB-231 cells. Put plainly: Anti-proliferative activity, MDA-MB-231 breast carcinoma cells (Coulter counting). The following applies: Homo sapiens, MDA-MB-231, 72 h, read-out: Tumor cells IC50 MDA-MB-231. An excerpt: (§1) The anti-proliferative activity of the synthesized benzofurane derivatives was studied in three human cancer cell lines [breast carcinoma (MDA-MB-231), lymphoblastic leukemia (CEM) and cervical carcinoma (HeLa) cells] and one endothelial cell line [human microvascular endothelial cells (HMEC-1)].
(§2) The human microvascular endothelial cell line HMEC-1 was obtained at passage 12 from the Centers for Disease Control and Prevention (Atlanta, GA, USA) and used from passage 17 till 27. Human breast carcinoma (MDA-MB-231), human cervical carcinoma (HeLa) and human T-lymphoid (CEM) cells were obtained from ATCC (Middlesex, UK). Cell lines were maintained in culture for up to 3 months and grown in DMEM, supplemented with 10% FBS, 0.01 M Hepes and 1 mM sodium pyruvate. All cells were cultured in a humidified 5% CO2 incubator at 37 °C.
(§3) HMEC-1 cells were seeded in 48-well plates at 20,000 cells/well. […] The cells were allowed to proliferate 4 days in the presence of the compounds, trypsinized, and counted by means of a Coulter counter (Analis, Belgium). […] After 3 days of incubation, the cells were trypsinized and counted in a Coulter counter. Suspension cells (human lymphoid Cem cells) were seeded in 96-well plates at 60,000 cells/well in the presence of different concentrations of the compounds, allowed to proliferate for 96 h, and counted in a Coulter counter. […]

The subject of a further assay is CEM cells. The assay can be described thus: Anti-proliferative activity, CEM lymphoblastic leukemia cells (Coulter counting). The following applies: Homo sapiens, CCRF-CEM, 96 h, read-out: Tumor cells IC50 CEM.
From the text: as §1, §2, §3

In the next assay the test system is HeLa cells. Put plainly: Anti-proliferative activity, HeLa cervical carcinoma cells (Coulter counting). The following applies: Homo sapiens, 72 h, read-out: Tumor cells IC50 HeLa.
From the text: as §1, §2, §3

A further assay has as its system HMEC-1 cells. The assay can be described thus: Anti-proliferative activity, HMEC-1 microvascular endothelial cells (Coulter counting). The following applies: Homo sapiens, HMEC-1, 96 h, read-out: Endothelial cells IC50 HMEC-1.
From the text: as §1, §2, §3

A further assay relates to A2780 cells. The assay can be described thus: Anti-proliferative activity, A2780 ovarian carcinoma cells. The following applies: Homo sapiens, mean ± standard error of three independent experiments. How it is done: One of the most relevant causes of tumor resistance to chemotherapy is the overexpression of membrane pumps which remove the chemotherapeutic agents from the treated cells. To evaluate the effect of the new chemotype on resistant cells, the most representative compounds were tested against A2780 and A2780AD (MDR overexpressing P-glycoprotein) human ovarian carcinomas and the results are collected in Table 2.

As to `COc1cc2c(c(OC)c1OC)-c1ccc(OC)c(=O)cc1[C@@H](NC(C)=O)CC2` [Colchicine, reference compound], the IC50 was found to be 7 ± 3 nM with MDA-MB-231 cells; 13 ± 0.4 nM with CEM cells; 8.7 ± 0.1 nM with HeLa cells; 3.8 ± 1.1 nM in the assay on HMEC-1 cells; 15 ± 4 nM in the assay with A2780 cells.

Broadly, the IC50 is the concentration needed to halve the response being measured.
